According to patent US20110065102A1:
No constants are given. Whether binding was seen depends on the method and setting. In cells and extracts the contact can be indirect. Some entries that bind do so weakly or less than the wild type. Sequences can lack the tags named with a protein.

By UniProt entry, the sequences of proteins in these tests, tags left out.
UniProt P07437: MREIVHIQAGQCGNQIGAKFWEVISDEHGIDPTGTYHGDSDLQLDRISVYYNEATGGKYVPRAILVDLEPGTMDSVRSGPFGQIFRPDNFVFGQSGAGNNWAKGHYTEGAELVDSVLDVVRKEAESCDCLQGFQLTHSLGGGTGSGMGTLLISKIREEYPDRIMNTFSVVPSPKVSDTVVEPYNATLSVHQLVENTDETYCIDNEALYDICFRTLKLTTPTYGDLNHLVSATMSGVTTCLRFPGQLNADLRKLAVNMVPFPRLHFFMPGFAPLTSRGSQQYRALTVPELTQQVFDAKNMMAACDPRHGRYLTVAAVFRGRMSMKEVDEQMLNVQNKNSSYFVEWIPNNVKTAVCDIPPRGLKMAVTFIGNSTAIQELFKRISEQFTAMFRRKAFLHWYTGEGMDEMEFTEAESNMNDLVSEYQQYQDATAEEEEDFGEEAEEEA

Experiments:
[1] = biological target: β-tubulin (endogenous, co-precipitated from HCS-2/8 or HEK293 cell lysates) (UniProt P07437); assay: pull-down with S-protein agarose, western blot with anti-β-tubulin antibody
[2] = biological target: β-tubulin (endogenous, co-precipitated from HCS-2/8 or HEK293 cell lysates) (UniProt P07437); assay: pull-down with S-protein, western blot (figure legend)

B1: amino-terminal S-tagged DIVA (Dual Intracellular Von Willebrand factor domain A) expressed from pTriEx4 in HCS-2/8 or HEK293 cells (protein, not shown: small tags and cut ends)
chain: MGLALKFILDHHFQEASGSRASQEVPQIAVVISSGPVEDHVHGPAKALRKAGILLYAIGVRDAVWAELREIASSPQENFTSFVPNFSGLSNLAQKLRQELCDTLAKAAPHVDHVSPACREAALADIVFLVDSSTSIGPQNFQKVKNFLYSVILGLDISSDRVRVGLAQYNDNIYPAFQLNQHPLKSMILEQIQNLPYRTGGTNTGSALEFIRTNYLTEESGSRAKDRVPQIVILVTDGESNDEVQEVADRLKEDGVVVLCGRGQCPGCPRVAKNNQ
binding [1]: binds
binding [2]: binds
